# In the supplement of paper PMC6411743:
# Amino acid sequences for entries named in this document (tags omitted). A change or cut given only in a name is not applied to a line headed by its entry.
# UniProt Q01415: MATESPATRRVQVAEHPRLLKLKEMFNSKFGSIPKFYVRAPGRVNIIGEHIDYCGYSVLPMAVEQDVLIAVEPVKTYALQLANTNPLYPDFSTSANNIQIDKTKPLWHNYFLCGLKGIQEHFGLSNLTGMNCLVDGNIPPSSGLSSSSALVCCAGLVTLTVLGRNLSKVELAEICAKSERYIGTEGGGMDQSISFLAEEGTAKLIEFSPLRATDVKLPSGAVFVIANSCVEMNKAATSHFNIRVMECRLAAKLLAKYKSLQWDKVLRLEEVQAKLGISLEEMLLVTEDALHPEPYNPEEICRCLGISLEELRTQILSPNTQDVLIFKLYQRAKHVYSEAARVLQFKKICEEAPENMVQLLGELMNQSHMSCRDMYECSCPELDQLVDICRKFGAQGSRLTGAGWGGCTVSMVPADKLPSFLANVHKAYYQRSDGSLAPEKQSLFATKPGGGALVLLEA
# UniProt Q09161: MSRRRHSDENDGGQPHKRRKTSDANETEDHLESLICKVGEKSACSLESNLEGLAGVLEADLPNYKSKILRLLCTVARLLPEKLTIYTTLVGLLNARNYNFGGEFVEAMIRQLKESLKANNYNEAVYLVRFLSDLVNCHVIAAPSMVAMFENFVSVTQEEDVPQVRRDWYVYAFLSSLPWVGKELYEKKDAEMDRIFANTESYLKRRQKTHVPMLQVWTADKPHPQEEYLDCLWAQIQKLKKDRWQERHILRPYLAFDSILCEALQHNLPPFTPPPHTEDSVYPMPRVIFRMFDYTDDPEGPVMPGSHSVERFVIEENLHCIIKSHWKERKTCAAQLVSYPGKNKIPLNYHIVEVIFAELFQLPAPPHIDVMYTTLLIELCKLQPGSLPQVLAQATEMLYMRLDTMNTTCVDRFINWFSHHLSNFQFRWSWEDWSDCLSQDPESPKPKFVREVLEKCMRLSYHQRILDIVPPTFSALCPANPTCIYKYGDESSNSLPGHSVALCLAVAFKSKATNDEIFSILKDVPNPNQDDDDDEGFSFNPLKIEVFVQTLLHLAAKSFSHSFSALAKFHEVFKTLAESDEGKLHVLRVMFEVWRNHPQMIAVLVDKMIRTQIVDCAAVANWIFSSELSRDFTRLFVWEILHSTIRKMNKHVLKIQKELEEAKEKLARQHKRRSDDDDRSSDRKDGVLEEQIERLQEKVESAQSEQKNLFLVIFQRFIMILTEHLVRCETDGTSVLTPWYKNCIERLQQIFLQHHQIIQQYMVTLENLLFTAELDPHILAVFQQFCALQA
# UniProt Q01650: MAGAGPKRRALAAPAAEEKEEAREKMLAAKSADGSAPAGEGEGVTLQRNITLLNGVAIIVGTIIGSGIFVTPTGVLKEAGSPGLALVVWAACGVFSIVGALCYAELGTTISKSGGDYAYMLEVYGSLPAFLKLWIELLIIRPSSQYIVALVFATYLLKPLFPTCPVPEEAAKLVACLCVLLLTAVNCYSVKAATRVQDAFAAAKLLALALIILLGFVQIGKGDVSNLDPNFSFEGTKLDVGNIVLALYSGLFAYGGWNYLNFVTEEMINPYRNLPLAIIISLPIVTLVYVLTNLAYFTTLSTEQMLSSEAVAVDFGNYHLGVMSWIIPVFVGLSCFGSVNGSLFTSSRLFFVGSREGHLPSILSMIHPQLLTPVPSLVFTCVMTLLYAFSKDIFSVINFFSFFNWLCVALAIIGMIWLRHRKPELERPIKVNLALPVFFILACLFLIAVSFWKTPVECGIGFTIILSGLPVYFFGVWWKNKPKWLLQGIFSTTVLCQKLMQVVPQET
# UniProt Q13049: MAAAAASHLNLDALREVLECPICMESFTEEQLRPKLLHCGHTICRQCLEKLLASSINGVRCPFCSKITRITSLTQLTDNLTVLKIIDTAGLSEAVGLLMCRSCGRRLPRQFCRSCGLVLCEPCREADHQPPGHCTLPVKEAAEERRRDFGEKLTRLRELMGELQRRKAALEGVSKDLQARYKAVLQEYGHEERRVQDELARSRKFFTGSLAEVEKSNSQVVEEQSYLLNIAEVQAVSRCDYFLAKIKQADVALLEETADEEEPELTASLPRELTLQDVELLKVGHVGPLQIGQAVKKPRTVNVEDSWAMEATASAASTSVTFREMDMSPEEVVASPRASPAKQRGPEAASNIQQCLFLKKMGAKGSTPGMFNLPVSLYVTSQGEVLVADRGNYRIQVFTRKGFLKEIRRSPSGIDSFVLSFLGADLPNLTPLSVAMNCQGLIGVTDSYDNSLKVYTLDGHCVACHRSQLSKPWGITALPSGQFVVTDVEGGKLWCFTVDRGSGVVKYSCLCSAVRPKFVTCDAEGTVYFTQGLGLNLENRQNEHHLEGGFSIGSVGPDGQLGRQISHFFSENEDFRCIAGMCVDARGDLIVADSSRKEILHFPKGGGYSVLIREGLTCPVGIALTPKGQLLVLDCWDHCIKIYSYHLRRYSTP
# UniProt Q02809: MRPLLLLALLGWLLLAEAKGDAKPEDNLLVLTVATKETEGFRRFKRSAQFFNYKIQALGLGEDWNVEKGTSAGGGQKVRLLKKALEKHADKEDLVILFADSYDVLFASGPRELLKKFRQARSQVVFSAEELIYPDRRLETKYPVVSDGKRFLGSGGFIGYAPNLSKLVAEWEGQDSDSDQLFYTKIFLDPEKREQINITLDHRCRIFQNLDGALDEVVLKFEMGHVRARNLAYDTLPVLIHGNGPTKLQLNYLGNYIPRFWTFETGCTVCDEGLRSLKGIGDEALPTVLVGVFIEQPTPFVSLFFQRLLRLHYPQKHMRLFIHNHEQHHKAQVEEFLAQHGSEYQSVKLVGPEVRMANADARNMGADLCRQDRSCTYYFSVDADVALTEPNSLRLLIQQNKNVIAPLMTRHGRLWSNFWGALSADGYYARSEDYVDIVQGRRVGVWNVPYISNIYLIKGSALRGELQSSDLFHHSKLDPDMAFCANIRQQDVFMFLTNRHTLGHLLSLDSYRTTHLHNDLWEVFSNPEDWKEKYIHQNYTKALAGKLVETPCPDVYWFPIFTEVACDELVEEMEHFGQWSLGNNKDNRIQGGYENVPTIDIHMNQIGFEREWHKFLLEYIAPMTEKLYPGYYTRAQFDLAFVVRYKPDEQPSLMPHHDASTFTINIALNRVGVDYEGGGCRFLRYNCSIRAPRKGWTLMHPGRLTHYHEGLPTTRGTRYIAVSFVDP
# UniProt Q14344, whole entry: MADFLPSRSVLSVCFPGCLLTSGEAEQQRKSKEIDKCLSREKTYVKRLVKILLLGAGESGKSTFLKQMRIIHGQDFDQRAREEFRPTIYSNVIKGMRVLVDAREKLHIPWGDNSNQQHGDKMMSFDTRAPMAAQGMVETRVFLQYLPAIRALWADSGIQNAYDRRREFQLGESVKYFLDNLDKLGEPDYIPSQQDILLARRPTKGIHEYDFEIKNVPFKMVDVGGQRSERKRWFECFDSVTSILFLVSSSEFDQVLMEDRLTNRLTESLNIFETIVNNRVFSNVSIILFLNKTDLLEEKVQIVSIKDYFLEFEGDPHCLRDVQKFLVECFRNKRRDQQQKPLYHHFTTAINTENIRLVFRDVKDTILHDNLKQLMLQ
# UniProt Q02790: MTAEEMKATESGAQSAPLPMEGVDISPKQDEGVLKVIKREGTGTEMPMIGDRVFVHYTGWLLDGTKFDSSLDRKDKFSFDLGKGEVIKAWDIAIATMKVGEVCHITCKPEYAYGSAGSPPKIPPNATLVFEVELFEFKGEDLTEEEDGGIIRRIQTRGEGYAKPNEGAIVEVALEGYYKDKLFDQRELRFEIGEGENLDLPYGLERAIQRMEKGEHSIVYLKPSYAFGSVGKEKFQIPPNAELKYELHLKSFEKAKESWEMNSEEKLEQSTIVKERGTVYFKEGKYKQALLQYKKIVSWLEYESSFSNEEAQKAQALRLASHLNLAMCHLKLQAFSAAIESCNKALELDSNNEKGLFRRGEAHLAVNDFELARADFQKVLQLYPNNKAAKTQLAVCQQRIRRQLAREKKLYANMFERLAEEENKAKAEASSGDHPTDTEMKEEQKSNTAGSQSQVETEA
# UniProt Q02880: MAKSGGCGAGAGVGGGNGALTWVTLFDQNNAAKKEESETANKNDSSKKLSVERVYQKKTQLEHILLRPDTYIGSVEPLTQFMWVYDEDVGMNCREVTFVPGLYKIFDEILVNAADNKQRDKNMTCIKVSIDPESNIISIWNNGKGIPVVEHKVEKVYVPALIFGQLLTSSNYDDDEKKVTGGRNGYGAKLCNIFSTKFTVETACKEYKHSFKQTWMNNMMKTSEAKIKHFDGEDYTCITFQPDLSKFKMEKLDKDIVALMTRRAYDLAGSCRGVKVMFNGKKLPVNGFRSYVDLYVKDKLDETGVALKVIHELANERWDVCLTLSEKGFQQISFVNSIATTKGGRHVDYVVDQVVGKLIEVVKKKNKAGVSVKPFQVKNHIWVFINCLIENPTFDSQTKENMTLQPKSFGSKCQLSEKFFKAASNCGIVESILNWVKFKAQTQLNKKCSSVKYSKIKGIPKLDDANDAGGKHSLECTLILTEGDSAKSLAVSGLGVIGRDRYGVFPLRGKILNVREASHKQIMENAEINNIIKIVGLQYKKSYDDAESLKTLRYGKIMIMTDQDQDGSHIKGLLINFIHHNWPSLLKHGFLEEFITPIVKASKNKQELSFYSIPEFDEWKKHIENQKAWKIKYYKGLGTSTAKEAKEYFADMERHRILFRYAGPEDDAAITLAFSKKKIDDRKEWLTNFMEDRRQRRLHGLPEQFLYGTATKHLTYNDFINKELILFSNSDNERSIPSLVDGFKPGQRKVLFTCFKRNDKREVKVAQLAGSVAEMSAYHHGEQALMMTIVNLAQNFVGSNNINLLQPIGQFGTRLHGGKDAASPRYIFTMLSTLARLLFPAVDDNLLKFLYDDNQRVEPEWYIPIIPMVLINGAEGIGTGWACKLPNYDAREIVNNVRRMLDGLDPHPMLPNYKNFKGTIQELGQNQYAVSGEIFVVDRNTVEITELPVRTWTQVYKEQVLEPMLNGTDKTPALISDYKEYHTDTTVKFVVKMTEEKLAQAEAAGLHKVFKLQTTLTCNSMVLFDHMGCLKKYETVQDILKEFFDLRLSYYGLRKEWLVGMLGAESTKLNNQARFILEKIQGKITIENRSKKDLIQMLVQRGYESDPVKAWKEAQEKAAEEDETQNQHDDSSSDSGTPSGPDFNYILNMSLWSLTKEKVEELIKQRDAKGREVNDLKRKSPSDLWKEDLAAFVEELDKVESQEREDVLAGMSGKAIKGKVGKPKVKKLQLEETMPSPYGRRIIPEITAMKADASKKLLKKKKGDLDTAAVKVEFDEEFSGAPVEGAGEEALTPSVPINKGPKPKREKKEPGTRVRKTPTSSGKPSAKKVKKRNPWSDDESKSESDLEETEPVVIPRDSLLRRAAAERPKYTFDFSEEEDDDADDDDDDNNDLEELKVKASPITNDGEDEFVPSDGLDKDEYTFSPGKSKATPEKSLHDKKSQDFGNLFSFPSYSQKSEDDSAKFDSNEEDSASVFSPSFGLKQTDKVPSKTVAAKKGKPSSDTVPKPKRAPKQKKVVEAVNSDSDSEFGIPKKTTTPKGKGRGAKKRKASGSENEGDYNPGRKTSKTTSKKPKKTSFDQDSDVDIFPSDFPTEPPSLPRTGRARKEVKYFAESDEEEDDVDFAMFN
# ± gives the standard deviation of the averaged measurements. This is one part of the list.
# Compound: Nc1nc2c(ncn2[C@@H]2O[C@H](COP(=O)(O)OP(=O)(O)OP(=O)(O)O)[C@@H](O)[C@H]2O)c(=O)[nH]1 [guanosine triphosphate]
# Test: NP40-soluble protein abundance relative to vehicle (solubility fold change) (ratio); higher = more soluble protein in presence of GTP
# Outline: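 Crude Jurkat lysate, prepared by Dounce homogenisation, was exposed to eight concentrations from 0.1 to 10 mM for 10 min at room temperature and then 3 min at 37 °C. Solubilisation used 0.8% NP40 with benzonase for 60 min at 4 °C, followed by ultracentrifugation and TMT labelling of the supernatant for LC-MS/MS. After vsn normalisation of intensities, each value is the fold change against the detergent-processed vehicle within each replicate, across three independent experiments.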
target,measurement,setting,value
UniProt Q01543 and related entries,NP40-soluble protein abundance,concentration: 0.1mM,0.967 ± 0.018
same,NP40-soluble protein abundance,concentration: 0.5mM,0.965 ± 0.062
same,NP40-soluble protein abundance,concentration: 1mM,1.03 ± 0.11
same,NP40-soluble protein abundance,concentration: 2mM,1.02 ± 0.15
same,NP40-soluble protein abundance,concentration: 4mM,0.986 ± 0.092
same,NP40-soluble protein abundance,concentration: 6mM,0.981 ± 0.11
same,NP40-soluble protein abundance,concentration: 8mM,0.998 ± 0.043
same,NP40-soluble protein abundance,concentration: 10mM,0.984 ± 0.066
GALK2 (UniProt Q01415),NP40-soluble protein abundance,concentration: 0.1mM,1.04 ± 0.06
same,NP40-soluble protein abundance,concentration: 0.5mM,0.915 ± 0.073
same,NP40-soluble protein abundance,concentration: 1mM,0.955 ± 0.028
same,NP40-soluble protein abundance,concentration: 2mM,1.08 ± 0.17
same,NP40-soluble protein abundance,concentration: 4mM,0.989 ± 0.086
same,NP40-soluble protein abundance,concentration: 6mM,0.869 ± 0.028
same,NP40-soluble protein abundance,concentration: 8mM,0.843 ± 0.076
same,NP40-soluble protein abundance,concentration: 10mM,0.883 ± 0.086
UniProt Q13416,NP40-soluble protein abundance,concentration: 0.1mM,0.988 ± 0.035
same,NP40-soluble protein abundance,concentration: 0.5mM,0.963 ± 0.026
same,NP40-soluble protein abundance,concentration: 1mM,1.03 ± 0.015
same,NP40-soluble protein abundance,concentration: 2mM,0.989 ± 0.033
same,NP40-soluble protein abundance,concentration: 4mM,1.03 ± 0.017
same,NP40-soluble protein abundance,concentration: 6mM,1.02 ± 0.032
same,NP40-soluble protein abundance,concentration: 8mM,1.1 ± 0.026
same,NP40-soluble protein abundance,concentration: 10mM,1.07 ± 0.024
NCBP1 (UniProt Q09161),NP40-soluble protein abundance,concentration: 0.1mM,1 ± 0.036
same,NP40-soluble protein abundance,concentration: 0.5mM,1.04 ± 0.064
same,NP40-soluble protein abundance,concentration: 1mM,1.01 ± 0.077
same,NP40-soluble protein abundance,concentration: 2mM,1.06 ± 0.12
same,NP40-soluble protein abundance,concentration: 4mM,1.08 ± 0.14
same,NP40-soluble protein abundance,concentration: 6mM,1.09 ± 0.12
same,NP40-soluble protein abundance,concentration: 8mM,1.07 ± 0.1
same,NP40-soluble protein abundance,concentration: 10mM,1.09 ± 0.062
UNC119 (UniProt Q13432),NP40-soluble protein abundance,concentration: 0.1mM,1 ± 0.098
same,NP40-soluble protein abundance,concentration: 0.5mM,1.02 ± 0.084
same,NP40-soluble protein abundance,concentration: 1mM,1.06 ± 0.12
same,NP40-soluble protein abundance,concentration: 2mM,1 ± 0.081
same,NP40-soluble protein abundance,concentration: 4mM,0.991 ± 0.073
same,NP40-soluble protein abundance,concentration: 6mM,0.986 ± 0.06
same,NP40-soluble protein abundance,concentration: 8mM,0.996 ± 0.15
same,NP40-soluble protein abundance,concentration: 10mM,0.961 ± 0.096
SLC7A5 (UniProt Q01650),NP40-soluble protein abundance,concentration: 0.1mM,0.923 ± 0.013
same,NP40-soluble protein abundance,concentration: 0.5mM,0.918 ± 0.015
same,NP40-soluble protein abundance,concentration: 1mM,0.952 ± 0.036
same,NP40-soluble protein abundance,concentration: 2mM,0.908 ± 0.063
same,NP40-soluble protein abundance,concentration: 4mM,0.915 ± 0.064
same,NP40-soluble protein abundance,concentration: 6mM,0.927 ± 0.089
same,NP40-soluble protein abundance,concentration: 8mM,0.951 ± 0.034
same,NP40-soluble protein abundance,concentration: 10mM,0.947 ± 0.083
SMC1A (UniProt Q14683),NP40-soluble protein abundance,concentration: 0.1mM,1 ± 0.041
same,NP40-soluble protein abundance,concentration: 0.5mM,1.04 ± 0.023
same,NP40-soluble protein abundance,concentration: 1mM,1.02 ± 0.024
same,NP40-soluble protein abundance,concentration: 2mM,1.02 ± 0.038
same,NP40-soluble protein abundance,concentration: 4mM,1.01 ± 0.05
same,NP40-soluble protein abundance,concentration: 6mM,1.03 ± 0.043
same,NP40-soluble protein abundance,concentration: 8mM,1.05 ± 0.065
same,NP40-soluble protein abundance,concentration: 10mM,1 ± 0.049
UniProt Q13492 and related entries,NP40-soluble protein abundance,concentration: 0.1mM,1.01 ± 0.051
same,NP40-soluble protein abundance,concentration: 0.5mM,0.977 ± 0.063
same,NP40-soluble protein abundance,concentration: 1mM,0.965 ± 0.03
same,NP40-soluble protein abundance,concentration: 2mM,0.939 ± 0.04
same,NP40-soluble protein abundance,concentration: 4mM,0.908 ± 0.021
same,NP40-soluble protein abundance,concentration: 6mM,0.902 ± 0.015
same,NP40-soluble protein abundance,concentration: 8mM,0.884 ± 0.05
same,NP40-soluble protein abundance,concentration: 10mM,0.86 ± 0.046
TRIM32 (UniProt Q13049),NP40-soluble protein abundance,concentration: 0.1mM,1.045 ± 0.0031
same,NP40-soluble protein abundance,concentration: 0.5mM,1.029 ± 0.0045
same,NP40-soluble protein abundance,concentration: 1mM,1.01 ± 0.12
same,NP40-soluble protein abundance,concentration: 2mM,1.12 ± 0.16
same,NP40-soluble protein abundance,concentration: 4mM,1.09 ± 0.082
same,NP40-soluble protein abundance,concentration: 6mM,1.12 ± 0.15
same,NP40-soluble protein abundance,concentration: 8mM,1.11 ± 0.12
same,NP40-soluble protein abundance,concentration: 10mM,1.05 ± 0.058
UniProt Q02809 and related entries,NP40-soluble protein abundance,concentration: 0.1mM,1.01 ± 0.082
same,NP40-soluble protein abundance,concentration: 0.5mM,1.05 ± 0.029
same,NP40-soluble protein abundance,concentration: 1mM,0.95 ± 0.045
same,NP40-soluble protein abundance,concentration: 2mM,1.03 ± 0.067
same,NP40-soluble protein abundance,concentration: 4mM,1.03 ± 0.098
same,NP40-soluble protein abundance,concentration: 6mM,0.996 ± 0.075
same,NP40-soluble protein abundance,concentration: 8mM,0.941 ± 0.035
same,NP40-soluble protein abundance,concentration: 10mM,1.01 ± 0.056
GNA13 (UniProt Q14344),NP40-soluble protein abundance,concentration: 0.1mM,1.02 ± 0.03
same,NP40-soluble protein abundance,concentration: 0.5mM,1.03 ± 0.072
same,NP40-soluble protein abundance,concentration: 1mM,0.899 ± 0.013
same,NP40-soluble protein abundance,concentration: 2mM,0.912 ± 0.043
same,NP40-soluble protein abundance,concentration: 4mM,0.877 ± 0.04
same,NP40-soluble protein abundance,concentration: 6mM,0.881 ± 0.043
same,NP40-soluble protein abundance,concentration: 8mM,0.853 ± 0.06
same,NP40-soluble protein abundance,concentration: 10mM,0.822 ± 0.072
LGALS3BP (UniProt Q08380),NP40-soluble protein abundance,concentration: 0.1mM,0.957 ± 0.039
same,NP40-soluble protein abundance,concentration: 0.5mM,0.989 ± 0.11
same,NP40-soluble protein abundance,concentration: 1mM,1.05 ± 0.11
same,NP40-soluble protein abundance,concentration: 2mM,1.11 ± 0.14
same,NP40-soluble protein abundance,concentration: 4mM,1.13 ± 0.11
same,NP40-soluble protein abundance,concentration: 6mM,1.13 ± 0.18
same,NP40-soluble protein abundance,concentration: 8mM,1.1 ± 0.13
same,NP40-soluble protein abundance,concentration: 10mM,1.16 ± 0.21
FKBP4 (UniProt Q02790),NP40-soluble protein abundance,concentration: 0.1mM,0.978 ± 0.025
same,NP40-soluble protein abundance,concentration: 0.5mM,1.01 ± 0.029
same,NP40-soluble protein abundance,concentration: 1mM,0.931 ± 0.023
same,NP40-soluble protein abundance,concentration: 2mM,0.92 ± 0.0088
same,NP40-soluble protein abundance,concentration: 4mM,0.885 ± 0.021
same,NP40-soluble protein abundance,concentration: 6mM,0.901 ± 0.016
same,NP40-soluble protein abundance,concentration: 8mM,0.877 ± 0.029
same,NP40-soluble protein abundance,concentration: 10mM,0.863 ± 0.044
UniProt Q03188,NP40-soluble protein abundance,concentration: 0.1mM,0.957 ± 0.11
same,NP40-soluble protein abundance,concentration: 0.5mM,0.964 ± 0.052
same,NP40-soluble protein abundance,concentration: 1mM,1.05 ± 0.095
same,NP40-soluble protein abundance,concentration: 2mM,0.973 ± 0.098
same,NP40-soluble protein abundance,concentration: 4mM,0.991 ± 0.12
same,NP40-soluble protein abundance,concentration: 6mM,1 ± 0.1
same,NP40-soluble protein abundance,concentration: 8mM,1.02 ± 0.11
same,NP40-soluble protein abundance,concentration: 10mM,1.07 ± 0.1
UniProt Q02880 and related entries,NP40-soluble protein abundance,concentration: 0.1mM,1.08 ± 0.06
same,NP40-soluble protein abundance,concentration: 0.5mM,1.09 ± 0.065
same,NP40-soluble protein abundance,concentration: 1mM,1.21 ± 0.06
same,NP40-soluble protein abundance,concentration: 2mM,1.37 ± 0.11
same,NP40-soluble protein abundance,concentration: 4mM,1.68 ± 0.17
same,NP40-soluble protein abundance,concentration: 6mM,1.85 ± 0.27
same,NP40-soluble protein abundance,concentration: 8mM,1.99 ± 0.26
same,NP40-soluble protein abundance,concentration: 10mM,2.08 ± 0.34

# Retrieved one by one from the entries so far, five records:
target,measurement,setting,value
FKBP4 (UniProt Q02790),NP40-soluble protein abundance,concentration: 8mM,0.877 ± 0.029
UniProt Q13492 and related entries,NP40-soluble protein abundance,concentration: 2mM,0.939 ± 0.04
SMC1A (UniProt Q14683),NP40-soluble protein abundance,concentration: 0.5mM,1.04 ± 0.023
SLC7A5 (UniProt Q01650),NP40-soluble protein abundance,concentration: 8mM,0.951 ± 0.034
NCBP1 (UniProt Q09161),NP40-soluble protein abundance,concentration: 0.5mM,1.04 ± 0.064

# Not a retest: entries from further up.
target,measurement,setting,value
GALK2 (UniProt Q01415),NP40-soluble protein abundance,concentration: 2mM,1.08 ± 0.17
same,NP40-soluble protein abundance,concentration: 4mM,0.989 ± 0.086
